No constants are given. Whether binding was seen depends on the method and setting. Binding seen in cells or lysates may run through a third protein. These calls come from enrichment with a bait or labelling near it, and not all partners need be listed.

Protein sequences, listed by entry. Tags and fused reporters are not part of them.
UniProt P48148: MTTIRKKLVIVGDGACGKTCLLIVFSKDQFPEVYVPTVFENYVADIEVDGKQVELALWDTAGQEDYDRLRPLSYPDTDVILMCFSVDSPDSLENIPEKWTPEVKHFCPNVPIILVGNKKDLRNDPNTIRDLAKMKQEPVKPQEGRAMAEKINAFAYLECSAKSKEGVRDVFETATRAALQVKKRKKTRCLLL
UniProt P32392: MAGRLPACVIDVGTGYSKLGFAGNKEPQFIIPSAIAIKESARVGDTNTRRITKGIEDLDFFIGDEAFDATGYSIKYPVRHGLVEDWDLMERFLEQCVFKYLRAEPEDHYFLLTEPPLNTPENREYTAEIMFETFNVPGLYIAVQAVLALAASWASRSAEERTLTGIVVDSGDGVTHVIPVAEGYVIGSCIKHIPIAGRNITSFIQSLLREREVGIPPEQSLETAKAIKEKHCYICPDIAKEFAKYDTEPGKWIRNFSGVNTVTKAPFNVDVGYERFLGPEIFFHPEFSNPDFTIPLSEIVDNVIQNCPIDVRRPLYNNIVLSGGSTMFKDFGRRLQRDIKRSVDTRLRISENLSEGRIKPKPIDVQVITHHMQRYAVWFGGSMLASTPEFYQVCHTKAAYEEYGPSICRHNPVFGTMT
UniProt P06754: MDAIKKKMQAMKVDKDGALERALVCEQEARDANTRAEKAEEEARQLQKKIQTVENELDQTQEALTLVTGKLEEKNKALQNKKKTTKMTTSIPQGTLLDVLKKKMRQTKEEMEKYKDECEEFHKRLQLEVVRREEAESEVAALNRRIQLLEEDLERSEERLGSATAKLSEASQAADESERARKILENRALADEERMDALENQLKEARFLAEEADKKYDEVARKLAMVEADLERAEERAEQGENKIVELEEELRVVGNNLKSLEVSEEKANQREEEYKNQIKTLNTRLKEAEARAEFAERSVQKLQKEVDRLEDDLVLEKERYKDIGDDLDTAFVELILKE
UniProt Q9W2N0: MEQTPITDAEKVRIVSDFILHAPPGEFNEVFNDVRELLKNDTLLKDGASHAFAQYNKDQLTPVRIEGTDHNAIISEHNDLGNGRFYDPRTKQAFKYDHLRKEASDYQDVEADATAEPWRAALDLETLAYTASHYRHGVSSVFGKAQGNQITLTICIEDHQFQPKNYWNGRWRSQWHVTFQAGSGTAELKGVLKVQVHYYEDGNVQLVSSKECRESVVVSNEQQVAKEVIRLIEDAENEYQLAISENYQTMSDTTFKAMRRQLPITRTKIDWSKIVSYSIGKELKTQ
UniProt Q9V8R9: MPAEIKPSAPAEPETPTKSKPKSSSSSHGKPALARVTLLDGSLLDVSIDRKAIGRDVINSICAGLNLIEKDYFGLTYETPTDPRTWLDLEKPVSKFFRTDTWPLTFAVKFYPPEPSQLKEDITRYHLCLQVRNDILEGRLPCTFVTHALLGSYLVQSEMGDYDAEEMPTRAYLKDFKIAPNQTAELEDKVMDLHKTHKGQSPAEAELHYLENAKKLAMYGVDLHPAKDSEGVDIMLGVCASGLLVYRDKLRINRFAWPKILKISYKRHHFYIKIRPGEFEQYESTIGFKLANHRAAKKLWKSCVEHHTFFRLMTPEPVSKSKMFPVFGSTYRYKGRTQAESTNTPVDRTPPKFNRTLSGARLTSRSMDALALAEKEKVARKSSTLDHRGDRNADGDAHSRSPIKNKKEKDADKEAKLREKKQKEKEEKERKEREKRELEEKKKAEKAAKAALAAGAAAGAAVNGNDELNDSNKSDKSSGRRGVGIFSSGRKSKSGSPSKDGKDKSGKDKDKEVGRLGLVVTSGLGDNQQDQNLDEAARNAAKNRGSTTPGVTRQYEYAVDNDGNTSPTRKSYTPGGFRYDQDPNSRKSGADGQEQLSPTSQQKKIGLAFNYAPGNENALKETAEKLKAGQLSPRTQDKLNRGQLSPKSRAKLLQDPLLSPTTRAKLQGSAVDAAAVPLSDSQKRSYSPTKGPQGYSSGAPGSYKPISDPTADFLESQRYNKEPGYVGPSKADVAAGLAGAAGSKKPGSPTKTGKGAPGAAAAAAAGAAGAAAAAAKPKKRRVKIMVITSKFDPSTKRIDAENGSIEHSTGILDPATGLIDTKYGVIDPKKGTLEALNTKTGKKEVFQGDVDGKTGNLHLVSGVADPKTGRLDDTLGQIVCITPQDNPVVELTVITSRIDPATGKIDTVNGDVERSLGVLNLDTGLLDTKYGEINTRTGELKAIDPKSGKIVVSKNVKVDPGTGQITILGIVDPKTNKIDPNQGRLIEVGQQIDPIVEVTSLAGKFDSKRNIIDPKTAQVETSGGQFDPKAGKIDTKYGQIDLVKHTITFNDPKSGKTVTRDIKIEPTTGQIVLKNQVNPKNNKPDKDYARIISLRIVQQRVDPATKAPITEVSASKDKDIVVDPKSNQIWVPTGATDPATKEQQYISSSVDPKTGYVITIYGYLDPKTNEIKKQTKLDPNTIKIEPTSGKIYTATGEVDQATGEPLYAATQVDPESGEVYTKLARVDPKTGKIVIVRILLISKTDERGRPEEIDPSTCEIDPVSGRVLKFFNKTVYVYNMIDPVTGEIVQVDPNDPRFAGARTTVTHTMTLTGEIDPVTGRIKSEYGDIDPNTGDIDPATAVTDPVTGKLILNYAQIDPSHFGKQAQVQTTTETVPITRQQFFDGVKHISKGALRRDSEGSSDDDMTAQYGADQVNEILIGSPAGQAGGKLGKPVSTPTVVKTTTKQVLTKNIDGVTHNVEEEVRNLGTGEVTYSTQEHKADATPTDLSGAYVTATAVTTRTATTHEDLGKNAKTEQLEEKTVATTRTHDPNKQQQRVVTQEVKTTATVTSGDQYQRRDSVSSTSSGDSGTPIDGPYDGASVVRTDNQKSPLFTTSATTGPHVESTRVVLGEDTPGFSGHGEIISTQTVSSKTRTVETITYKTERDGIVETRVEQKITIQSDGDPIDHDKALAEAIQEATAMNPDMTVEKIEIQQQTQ
UniProt P46150: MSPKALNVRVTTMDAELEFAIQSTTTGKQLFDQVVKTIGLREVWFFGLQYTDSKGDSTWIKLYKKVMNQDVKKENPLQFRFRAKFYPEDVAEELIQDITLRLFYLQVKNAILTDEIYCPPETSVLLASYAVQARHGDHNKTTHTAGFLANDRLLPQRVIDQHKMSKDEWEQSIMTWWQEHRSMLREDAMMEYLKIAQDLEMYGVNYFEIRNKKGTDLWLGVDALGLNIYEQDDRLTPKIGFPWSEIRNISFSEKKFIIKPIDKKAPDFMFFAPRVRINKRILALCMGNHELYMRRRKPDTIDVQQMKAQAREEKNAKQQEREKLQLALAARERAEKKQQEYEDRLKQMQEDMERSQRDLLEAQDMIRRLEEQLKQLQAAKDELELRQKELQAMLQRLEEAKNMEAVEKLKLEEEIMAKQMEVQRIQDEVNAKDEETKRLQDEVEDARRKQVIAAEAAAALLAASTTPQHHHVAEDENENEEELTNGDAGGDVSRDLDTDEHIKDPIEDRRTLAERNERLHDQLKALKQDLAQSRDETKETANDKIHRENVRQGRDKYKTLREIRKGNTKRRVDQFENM
UniProt Q8MSS1: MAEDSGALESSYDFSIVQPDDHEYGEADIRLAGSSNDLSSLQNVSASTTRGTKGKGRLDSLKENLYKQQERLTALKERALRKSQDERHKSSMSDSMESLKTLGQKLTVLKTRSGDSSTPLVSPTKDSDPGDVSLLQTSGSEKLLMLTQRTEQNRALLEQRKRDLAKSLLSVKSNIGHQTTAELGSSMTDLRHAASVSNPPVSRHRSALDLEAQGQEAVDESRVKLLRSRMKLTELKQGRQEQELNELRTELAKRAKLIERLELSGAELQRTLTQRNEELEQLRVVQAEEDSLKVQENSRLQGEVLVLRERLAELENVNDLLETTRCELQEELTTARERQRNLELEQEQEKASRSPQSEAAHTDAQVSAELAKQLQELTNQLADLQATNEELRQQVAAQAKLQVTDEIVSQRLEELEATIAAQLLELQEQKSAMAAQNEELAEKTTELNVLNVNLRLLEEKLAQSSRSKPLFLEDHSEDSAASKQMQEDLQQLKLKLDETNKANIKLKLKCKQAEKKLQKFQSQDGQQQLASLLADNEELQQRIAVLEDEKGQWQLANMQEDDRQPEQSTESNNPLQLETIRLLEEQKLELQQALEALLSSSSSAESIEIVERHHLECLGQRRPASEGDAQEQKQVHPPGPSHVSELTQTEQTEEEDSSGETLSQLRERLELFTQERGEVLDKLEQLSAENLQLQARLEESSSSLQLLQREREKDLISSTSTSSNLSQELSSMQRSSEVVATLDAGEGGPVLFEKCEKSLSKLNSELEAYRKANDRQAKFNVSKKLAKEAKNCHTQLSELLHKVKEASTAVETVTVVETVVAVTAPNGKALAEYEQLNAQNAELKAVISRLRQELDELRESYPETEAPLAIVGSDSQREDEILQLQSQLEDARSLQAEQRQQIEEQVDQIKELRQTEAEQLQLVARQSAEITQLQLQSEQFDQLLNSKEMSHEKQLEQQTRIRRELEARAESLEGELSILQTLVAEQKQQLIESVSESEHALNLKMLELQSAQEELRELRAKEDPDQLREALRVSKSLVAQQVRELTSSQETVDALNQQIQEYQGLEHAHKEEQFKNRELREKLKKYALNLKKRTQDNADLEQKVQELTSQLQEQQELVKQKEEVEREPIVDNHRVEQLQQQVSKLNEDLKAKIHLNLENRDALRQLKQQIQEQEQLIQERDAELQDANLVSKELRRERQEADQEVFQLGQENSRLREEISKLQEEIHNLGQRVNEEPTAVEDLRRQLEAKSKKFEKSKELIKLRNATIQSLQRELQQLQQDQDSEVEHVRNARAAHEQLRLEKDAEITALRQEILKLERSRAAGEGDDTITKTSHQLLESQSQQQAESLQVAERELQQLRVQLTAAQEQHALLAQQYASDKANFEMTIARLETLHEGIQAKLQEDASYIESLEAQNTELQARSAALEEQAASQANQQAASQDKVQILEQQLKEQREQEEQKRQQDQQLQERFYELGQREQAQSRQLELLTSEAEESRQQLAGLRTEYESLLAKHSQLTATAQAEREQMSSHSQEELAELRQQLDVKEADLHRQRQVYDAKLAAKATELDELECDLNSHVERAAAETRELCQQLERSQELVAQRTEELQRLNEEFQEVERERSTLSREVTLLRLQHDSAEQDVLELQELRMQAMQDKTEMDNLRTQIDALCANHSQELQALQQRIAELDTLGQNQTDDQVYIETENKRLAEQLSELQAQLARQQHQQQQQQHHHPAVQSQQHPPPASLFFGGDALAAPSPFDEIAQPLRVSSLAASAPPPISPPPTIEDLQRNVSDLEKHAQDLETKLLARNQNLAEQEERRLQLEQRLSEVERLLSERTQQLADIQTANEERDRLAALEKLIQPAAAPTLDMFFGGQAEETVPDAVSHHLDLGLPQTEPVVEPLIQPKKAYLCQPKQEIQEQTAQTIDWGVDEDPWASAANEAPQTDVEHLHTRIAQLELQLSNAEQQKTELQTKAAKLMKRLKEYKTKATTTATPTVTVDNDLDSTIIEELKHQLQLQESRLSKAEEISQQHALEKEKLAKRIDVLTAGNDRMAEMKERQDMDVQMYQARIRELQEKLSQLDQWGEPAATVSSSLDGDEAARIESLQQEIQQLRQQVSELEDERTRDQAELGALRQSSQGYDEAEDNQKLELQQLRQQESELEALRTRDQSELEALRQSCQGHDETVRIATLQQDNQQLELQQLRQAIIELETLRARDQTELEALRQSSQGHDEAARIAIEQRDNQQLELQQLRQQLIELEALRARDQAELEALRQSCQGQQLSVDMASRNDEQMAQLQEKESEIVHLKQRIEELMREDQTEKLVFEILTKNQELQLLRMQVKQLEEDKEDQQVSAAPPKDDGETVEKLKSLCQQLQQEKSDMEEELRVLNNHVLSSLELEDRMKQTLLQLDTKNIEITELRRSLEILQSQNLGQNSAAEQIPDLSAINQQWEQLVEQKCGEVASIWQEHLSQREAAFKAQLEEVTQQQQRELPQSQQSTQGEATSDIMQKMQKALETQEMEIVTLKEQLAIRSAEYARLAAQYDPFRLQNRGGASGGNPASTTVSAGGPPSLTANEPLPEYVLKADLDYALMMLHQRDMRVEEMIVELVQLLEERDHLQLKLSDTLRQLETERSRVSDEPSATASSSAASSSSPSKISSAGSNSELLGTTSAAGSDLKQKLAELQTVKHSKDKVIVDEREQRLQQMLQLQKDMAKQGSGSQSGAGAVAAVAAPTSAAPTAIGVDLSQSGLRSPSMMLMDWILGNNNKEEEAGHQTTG

Among the data in article PMC13168378 are binding values, retold here.

B1: cpb (protein, UniProt P48603 1-276)
chain: MSEMQMDCALDLMRRLPPQQIEKNLIDLIDLAPDLCEDLLSSVDQPLKIAKDKEHGKDYLLCDYNRDGDSYRSPWSNSYYPPLEDGQMPSERLRKLEIEANYAFDQYREMYYEGGVSSVYLWDLDHGFAAVILIKKAGDGSKMIRGCWDSIHVVEVQEKTTGRTAHYKLTSTAMLWLQTNKQGSGTMNLGGSLTRQQEQDANVSESSPHIANIGKMVEEMENKIRNTLNEIYFGKTKDIVNGLRSTQSLADQRQQAAMKQDLAAAILRRNVKPESN
B2: flare (protein, UniProt Q9VU68 1-608)
chain: MAQPQPPAYENKNIYATLPRTQRGQPIVLGADPKGKNFLYTNGNSVIIRNIENPAIADVYTEHSCAVNVAKYSPSGFYIASGDASGKIRIWDTVNKEHLLKNEFQPIAGPIKDISWSPDNQRIVAVGEGRERFGHVFMSETGTSVGEISGQSKSINSADFRPARPFRIVTGSEDNTIAVFEGPPFKFKMTKQDHSRFVQAVRYSPDGKFFASAGFDGKVFLYDGTSSELVGEFGSPAHKGGVYALAWKPDSTQLLTCSGDKTCRLWTVESRELVSEFVMGTTVDDQQVSCLWQGDNLITVSLSGVITYLNVADPSKPLRVVKGHNKPITVLGLSDDRSTIYTGSHDGVVTNWNSGSGTNDRITGTGHGNQINGIAAWGDFVYTCGIDDSLRQFSVEGNSYTDYVVKLNCQPRGLAILRNENIIALACIKELTLVQDQKKIFSLPIKYEASSIAVNADTSDVAVGGDDQKLHIYTLKGGVLEPKVELDHLGAVTDVSYSPDLKYLVACDAHRKVVLYSVEEYKPAHNKEWGFHSARVNTVAWSPNSLLVASGSLDTTIIIWSVANPAKHTIIKNAHPQSQITRLVWLDNNTVISTGQDCNTKVWHVENI

The target of this experiment is Rho1 GTPase (Drosophila melanogaster (endogenous in third instar larvae)) (UniProt P48148). Briefly: affinity purification with mass spectrometry; anti-Rho1 antibody on Protein G Plus-agarose beads; larval Malpighian tubule lysates (RIPA buffer) of Oregon R+ and of Drice mutants, 2 h at 4 °C; bound proteins by mass spectrometry.
With Arp3 (from UniProt P32392 1-418), the binding result was “binds”.
For “tropomyosin-I (from UniProt P06754 1-339)”, the binding result is given as “binds”.
With cpa (from UniProt Q9W2N0 1-286) the entry was “binds”; with cora (from UniProt Q9V8R9 1-1698), “binds”.
The value for moesin (from UniProt P46150 1-578) was “binds”; that for lva (from UniProt Q8MSS1 1-2779) was “binds”; that for B1 was “binds”.
The value for B2 was “binds”.
